From patent US10221215
Results are given in words; binding and its absence hold for the method and conditions named. A result given as binding can be weak or reduced; the word gives no strength.

Molecular target: N-terminal His6-tagged Ras1-166 (human)
Experiment: fluorescence polarization, direct binding, Ras titrated into 15 nM labelled peptide

**Q.** FEGIYRLELLKAEEAN (fluorescein label (site of attachment shown only in a drawing)) [7^uncon-Flu] was tested. Which binding did it give?
**A.** binds
